# From PubChem BioAssay AID624291 (National Center for Advancing Translational Sciences (NCATS), 2012)
# Out of some 350,000 compounds screened, about 220 (0.063%) were called active. Inconclusive means that the source gave no clear call. Such entries were picked first, then a sample of the others. Calls follow the shape of the dose curve; as a rule, active = well fitted activation curve with a large enough effect; inconclusive = small, poorly fitted or top-dose-only effect; inactive = no such curve, though single readings can be large or run the other way. Potencies of inconclusive entries are doubtful fits and often do not repeat.
# Assay: qHTS for Activators of Integrin-Mediated Alleviation for Muscular Dystrophy; also: nearly all actives have a fitted effect of over 60% in size;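 as to activation: 100% = response of the positive control SU9516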
# Conditions: alpha7betagal myoblasts, beta-gal FDG fluorescence, 48 h; activation: at 38.3 µM (top of the series)
# How it was run: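 Alpha7betagal+/- myoblasts (passage 13) were plated 16-24 hr, then exposed to compounds (1:260 dilution of DMSO stock) for 48 hours at 37C. After MPER lysis, β-galactosidase reporter activity was read as FDG fluorescence (ex 480/em 540) after 30 minutes.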
# Potency is read from the fitted curve at half-maximal effect.
SMILES,Potency,activation
COc1ccccc1OCCn1cc(/C=N/NC(N)=S)c2ccccc21,inactive,
Clc1ccc(N=c2ssnc2Cl)cc1,inactive,
CCCCCCOc1ccc(C(CC(=O)O)C(N)=O)cc1 (configuration not stated),"inconclusive: 28.2 µM [activator, single point]",
CN1CCN(C(=O)c2cc(Cl)cc(Cl)c2)CC1,,inconclusive: 47.7% [activator]
COc1ccc(OC)c(/C=C/C(=O)Nc2cccc(S(=O)(=O)N3CCCC3)c2)c1,inactive,
CC(C)NC(=O)CSc1nc2[nH]ncc2c(=O)[nH]1,"inconclusive: 28.2 µM [activator, single point]",
Cn1cc([N+](=O)[O-])c(C(=O)Nc2ccc(-c3nc4ccccc4[nH]3)cc2)n1,inactive,
O=C(Nc1cc2c(cc1Cl)OCCCO2)c1ccccc1,"inconclusive: 11.2 µM [activator, partial curve, poor fit]",
COc1ccc(O)c(/C=C(\C#N)C(=O)Nc2cccnc2)c1,"inconclusive: 3.55 µM [activator, full curve]",
CC(=O)c1ccc(N2C(=O)[C@@H]3[C@H](C2=O)[C@H]2c4ccccc4C=NN2[C@@H]3C(C)=O)cc1,"inconclusive: 11.2 µM [activator, single point]",
C#CCn1c2ccccc2c2nc3ccccc3nc21,"inconclusive: 0.794 µM [activator, full curve, poor fit]",
C=CCN1C(=O)C(CC(=O)O)SC1=Nc1ccc(C)cc1 (configuration not stated),inactive,
Cc1cc(Br)cc(C=Nc2ccc(N3CCOCC3)cc2)c1O,inactive,
CCn1ncc(Br)c1C(=O)Nc1ccc2c(c1)OCCO2,"inconclusive: 1.78 µM [activator, partial curve, poor fit]",
O=C1NC(=Nc2ccccc2)S/C1=C\C=C\c1ccco1,inactive,
O=C(CCc1ccccc1)Nc1ccnn1C1CCN(Cc2ccc(OCCO)cc2)CC1,"inconclusive: 28.2 µM [activator, single point]",
CSc1ccc(S(=O)(=O)N2CCC(C(=O)NCc3cccnc3)CC2)cc1,"inconclusive: 2.82 µM [activator, partial curve, poor fit]",
CC(C)(C)c1ccc(C(=O)N2CCN(Cc3ccccc3)CC2)cc1,"inconclusive: 28.2 µM [activator, single point]",
Clc1nc(-c2ccccc2)cc(-c2ccc(Br)cc2)n1,"inconclusive: 5.01 µM [activator, single point]",
COc1cccc(/C=C/C(=O)OCC(=O)Nc2ccccc2Sc2ccccc2)c1,"inconclusive: 5.01 µM [activator, single point]",
Cc1cc2nc(-c3ccccc3)cc(=O)n2[nH]1,"inconclusive: 2 µM [activator, full curve, poor fit]",
CN(C)c1ccc(C(=O)N2CCCC2)cc1,"inconclusive: 5.01 µM [activator, single point]",
COc1cc(C(=O)Nc2ccc3c(c2)N(C(=O)CCN(C)C)c2ccccc2CC3)cc(OC)c1OC,inactive,
CCOC(=O)c1ccc(N2CN(C3CCCCC3)CNC2=S)cc1,inactive,

# Looked up above:
# CC(=O)c1ccc(N2C(=O)[C@@H]3[C@H](C2=O)[C@H]2c4ccccc4C=NN2[C@@H]3C(C)=O)cc1 | Potency: inconclusive: 11.2 µM [activator, single point]
# COc1cccc(/C=C/C(=O)OCC(=O)Nc2ccccc2Sc2ccccc2)c1 | Potency: inconclusive: 5.01 µM [activator, single point]
# COc1ccc(O)c(/C=C(\C#N)C(=O)Nc2cccnc2)c1 | Potency: inconclusive: 3.55 µM [activator, full curve]

# More entries follow:

SMILES,Potency,activation
CCOc1ccc(C2=Nn3c(CC)nnc3SC2)cc1,inactive,
O=C(CCSc1nnc2ccc3ccccc3n12)Nc1ccc(F)cc1,"inconclusive: 2.24 µM [activator, single point]",
COC(=O)C1=C(C)N(c2ccc(C)c(C)c2)/C(=C/c2ccco2)C1=O,inactive,
O=[N+]([O-])c1ccc2[nH]c3c(c2c1)CCCC3,"inconclusive: 3.16 µM [activator, single point]",
Cc1ccc(C(=O)N2CCN(c3cccc(Cl)c3)CC2)cc1C,inactive,
O=C(c1sc2cc(F)ccc2c1Cl)N1CCN(c2ccccc2)CC1,"inconclusive: 11.2 µM [activator, single point]",
O=C(NCCCN1CCCC1=O)c1cccc(Oc2ccccc2)c1,"inconclusive: 11.2 µM [activator, single point]",
COc1ccc(N2CCN(C(=O)COCc3cc(-c4ccc5c(c4)OCO5)on3)CC2)cc1,"inconclusive: 0.447 µM [activator, partial curve, poor fit]",
CCOC(=O)c1c(C)[nH]c(N=Nc2ccc(C)cc2)c1C,inactive,
O=C(COC(=O)c1cccnc1Cl)Nc1cc(S(=O)(=O)N2CCCCC2)ccc1Cl,"inconclusive: 5.01 µM [activator, single point]",
CCNC(=O)C1CCCN1S(=O)(=O)c1ccc2ccccc2c1 (configuration not stated),"inconclusive: 2.82 µM [activator, single point]",
O=C(COC(=O)c1cc(S(=O)(=O)N2CCOCC2)ccc1O)NCCc1ccccc1,"inconclusive: 28.2 µM [activator, single point]",
CC1CC1C(=O)Nc1ccc(-c2ccccc2)cc1 (configuration not stated),inactive,
Cc1ccc(C=NNc2nc3c([nH]2)c(=O)n(C)c(=O)n3C)cc1,"inconclusive: 3.16 µM [activator, full curve, poor fit]",
Cc1c(C=O)c2ccccn2c1C(=O)c1cccc([N+](=O)[O-])c1,"inconclusive: 28.2 µM [activator, single point]",
O=C(c1ccc(Cl)cc1)N1CCCCC(Sc2nnc(-c3ccc4c(c3)OCO4)o2)C1=O (configuration not stated),inactive,
CCN(CC)S(=O)(=O)c1ccc(Oc2ccc(S(=O)(=O)N(CC)CC)cc2)cc1,inactive,
O=c1cc(O)n(C2CCCCCC2)c(=O)[nH]1,"inconclusive: 20 µM [activator, single point]",
O=C(CNC(=O)c1ccco1)OCc1ccc(Br)cc1,"inconclusive: 28.2 µM [activator, single point]",
Cc1ccc(N(C)C(=O)N2CCN(S(=O)(=O)c3c(C)cc(C)cc3C)CC2)cc1,"inconclusive: 2.82 µM [activator, single point]",
CC(=O)c1ccc(NCCC(=O)c2ccccc2)cc1,inactive,
CCOc1ccc(NC(=O)N2CCc3ccccc3C2)cc1,"inconclusive: 5.01 µM [activator, single point]",
CCOC(=O)C(=O)c1csc(NC(=O)CCSc2ccc(C)cc2)n1,"inconclusive: 8.91 µM [activator, single point]",
